The list shows a part of the results.

Protein sequences, listed by entry. Tags and fused reporters are not part of them. Lines headed by an entry give the natural chain unless they say otherwise; changes in a name come on top.
UniProt Q92925, whole entry, looked up: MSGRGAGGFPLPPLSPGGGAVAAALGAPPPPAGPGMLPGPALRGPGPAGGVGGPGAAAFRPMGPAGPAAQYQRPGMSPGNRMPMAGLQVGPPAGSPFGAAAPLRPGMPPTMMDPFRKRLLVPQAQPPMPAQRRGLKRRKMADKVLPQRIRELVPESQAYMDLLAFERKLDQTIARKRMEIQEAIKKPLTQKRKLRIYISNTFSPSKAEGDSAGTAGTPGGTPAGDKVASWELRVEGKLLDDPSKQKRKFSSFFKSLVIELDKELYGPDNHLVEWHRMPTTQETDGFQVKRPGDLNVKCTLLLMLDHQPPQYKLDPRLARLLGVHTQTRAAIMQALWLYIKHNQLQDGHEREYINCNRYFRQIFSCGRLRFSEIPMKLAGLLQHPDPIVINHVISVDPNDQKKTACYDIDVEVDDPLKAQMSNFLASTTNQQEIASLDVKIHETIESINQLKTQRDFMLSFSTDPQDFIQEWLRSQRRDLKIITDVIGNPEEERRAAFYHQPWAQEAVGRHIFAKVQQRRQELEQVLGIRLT
UniProt O75643, whole entry, looked up: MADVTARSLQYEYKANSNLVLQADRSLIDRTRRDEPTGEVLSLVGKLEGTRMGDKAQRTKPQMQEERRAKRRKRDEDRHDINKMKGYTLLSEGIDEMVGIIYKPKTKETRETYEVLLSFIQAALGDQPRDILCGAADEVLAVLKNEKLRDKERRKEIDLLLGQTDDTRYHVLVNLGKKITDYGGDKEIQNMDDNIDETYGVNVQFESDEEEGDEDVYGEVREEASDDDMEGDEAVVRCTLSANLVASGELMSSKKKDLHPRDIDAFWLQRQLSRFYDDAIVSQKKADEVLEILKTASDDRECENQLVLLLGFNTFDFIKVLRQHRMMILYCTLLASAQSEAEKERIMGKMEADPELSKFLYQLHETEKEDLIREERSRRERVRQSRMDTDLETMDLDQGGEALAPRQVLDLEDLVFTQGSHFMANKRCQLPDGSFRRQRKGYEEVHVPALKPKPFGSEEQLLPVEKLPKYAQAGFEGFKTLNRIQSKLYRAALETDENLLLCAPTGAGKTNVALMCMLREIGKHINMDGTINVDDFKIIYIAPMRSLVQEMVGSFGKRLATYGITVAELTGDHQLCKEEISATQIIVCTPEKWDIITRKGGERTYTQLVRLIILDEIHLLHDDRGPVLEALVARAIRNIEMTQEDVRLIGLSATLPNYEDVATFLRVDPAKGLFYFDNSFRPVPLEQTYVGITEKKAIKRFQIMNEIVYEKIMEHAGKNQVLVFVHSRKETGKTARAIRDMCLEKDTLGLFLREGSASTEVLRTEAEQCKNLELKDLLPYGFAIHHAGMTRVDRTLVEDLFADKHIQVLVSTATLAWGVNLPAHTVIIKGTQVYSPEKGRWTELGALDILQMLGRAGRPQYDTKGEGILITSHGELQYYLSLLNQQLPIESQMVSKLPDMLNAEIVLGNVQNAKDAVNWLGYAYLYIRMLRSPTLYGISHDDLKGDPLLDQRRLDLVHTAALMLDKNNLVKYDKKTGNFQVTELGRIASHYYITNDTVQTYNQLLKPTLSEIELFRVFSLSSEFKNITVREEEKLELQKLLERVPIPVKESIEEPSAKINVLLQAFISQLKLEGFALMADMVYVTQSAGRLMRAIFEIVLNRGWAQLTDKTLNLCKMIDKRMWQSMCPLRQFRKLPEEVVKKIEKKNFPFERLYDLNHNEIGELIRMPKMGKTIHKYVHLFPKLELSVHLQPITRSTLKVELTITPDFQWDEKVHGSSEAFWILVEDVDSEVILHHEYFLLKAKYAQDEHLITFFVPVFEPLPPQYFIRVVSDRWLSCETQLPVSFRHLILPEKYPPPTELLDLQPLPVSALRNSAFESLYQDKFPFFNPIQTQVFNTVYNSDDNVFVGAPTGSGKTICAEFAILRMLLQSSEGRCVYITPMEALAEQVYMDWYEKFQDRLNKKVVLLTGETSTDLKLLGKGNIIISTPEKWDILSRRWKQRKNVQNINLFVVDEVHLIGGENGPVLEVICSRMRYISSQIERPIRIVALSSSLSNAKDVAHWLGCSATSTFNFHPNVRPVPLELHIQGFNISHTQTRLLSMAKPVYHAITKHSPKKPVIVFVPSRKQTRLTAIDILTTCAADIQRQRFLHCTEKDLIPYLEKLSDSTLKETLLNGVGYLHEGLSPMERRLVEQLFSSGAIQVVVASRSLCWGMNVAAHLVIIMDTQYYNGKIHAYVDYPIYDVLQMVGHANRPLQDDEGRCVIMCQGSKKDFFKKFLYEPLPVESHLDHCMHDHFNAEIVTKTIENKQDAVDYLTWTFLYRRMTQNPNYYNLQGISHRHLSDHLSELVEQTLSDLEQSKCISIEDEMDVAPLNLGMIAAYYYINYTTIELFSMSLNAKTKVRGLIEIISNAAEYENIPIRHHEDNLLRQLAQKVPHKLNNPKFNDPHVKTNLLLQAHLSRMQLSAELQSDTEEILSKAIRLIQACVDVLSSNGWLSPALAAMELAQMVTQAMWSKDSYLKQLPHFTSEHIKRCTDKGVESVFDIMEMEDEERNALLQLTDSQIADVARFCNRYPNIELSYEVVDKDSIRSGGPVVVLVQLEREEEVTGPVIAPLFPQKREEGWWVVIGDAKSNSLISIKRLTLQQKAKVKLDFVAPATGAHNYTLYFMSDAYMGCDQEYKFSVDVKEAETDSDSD
UniProt P09486: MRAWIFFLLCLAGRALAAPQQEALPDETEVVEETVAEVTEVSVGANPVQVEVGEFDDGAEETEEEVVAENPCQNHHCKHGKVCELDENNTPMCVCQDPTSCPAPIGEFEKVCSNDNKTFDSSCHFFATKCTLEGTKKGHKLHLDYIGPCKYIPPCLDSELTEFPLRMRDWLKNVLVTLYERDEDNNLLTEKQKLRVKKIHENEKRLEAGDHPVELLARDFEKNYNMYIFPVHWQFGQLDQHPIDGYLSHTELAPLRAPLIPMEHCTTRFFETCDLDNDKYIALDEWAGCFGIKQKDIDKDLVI
UniProt Q96KF7: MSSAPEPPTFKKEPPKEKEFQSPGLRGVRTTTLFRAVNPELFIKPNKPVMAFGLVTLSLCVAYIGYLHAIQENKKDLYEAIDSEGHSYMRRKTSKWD
UniProt Q96GM5, whole entry, looked up: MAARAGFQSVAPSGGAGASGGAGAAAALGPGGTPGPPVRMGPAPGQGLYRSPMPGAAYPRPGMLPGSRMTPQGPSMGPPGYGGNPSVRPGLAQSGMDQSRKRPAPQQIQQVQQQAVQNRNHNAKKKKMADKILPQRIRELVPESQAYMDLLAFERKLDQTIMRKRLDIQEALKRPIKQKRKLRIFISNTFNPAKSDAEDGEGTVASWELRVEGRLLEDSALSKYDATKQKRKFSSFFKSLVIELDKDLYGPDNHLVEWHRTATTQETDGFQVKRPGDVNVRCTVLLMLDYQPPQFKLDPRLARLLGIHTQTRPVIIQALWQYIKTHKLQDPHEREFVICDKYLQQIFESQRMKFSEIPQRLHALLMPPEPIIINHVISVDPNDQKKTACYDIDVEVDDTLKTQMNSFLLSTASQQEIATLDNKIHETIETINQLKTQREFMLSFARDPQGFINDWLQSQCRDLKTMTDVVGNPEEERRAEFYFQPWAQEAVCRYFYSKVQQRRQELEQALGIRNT
UniProt P57768: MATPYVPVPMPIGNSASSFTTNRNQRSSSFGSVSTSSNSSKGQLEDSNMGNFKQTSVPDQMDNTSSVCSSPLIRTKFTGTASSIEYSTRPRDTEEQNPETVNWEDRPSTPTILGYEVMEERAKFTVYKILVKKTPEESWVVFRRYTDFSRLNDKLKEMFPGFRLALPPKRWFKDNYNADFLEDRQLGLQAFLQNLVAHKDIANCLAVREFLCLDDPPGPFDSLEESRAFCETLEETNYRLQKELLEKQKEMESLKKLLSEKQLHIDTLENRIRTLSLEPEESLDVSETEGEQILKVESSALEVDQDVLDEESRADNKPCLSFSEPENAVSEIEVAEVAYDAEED
UniProt Q9Y5X1: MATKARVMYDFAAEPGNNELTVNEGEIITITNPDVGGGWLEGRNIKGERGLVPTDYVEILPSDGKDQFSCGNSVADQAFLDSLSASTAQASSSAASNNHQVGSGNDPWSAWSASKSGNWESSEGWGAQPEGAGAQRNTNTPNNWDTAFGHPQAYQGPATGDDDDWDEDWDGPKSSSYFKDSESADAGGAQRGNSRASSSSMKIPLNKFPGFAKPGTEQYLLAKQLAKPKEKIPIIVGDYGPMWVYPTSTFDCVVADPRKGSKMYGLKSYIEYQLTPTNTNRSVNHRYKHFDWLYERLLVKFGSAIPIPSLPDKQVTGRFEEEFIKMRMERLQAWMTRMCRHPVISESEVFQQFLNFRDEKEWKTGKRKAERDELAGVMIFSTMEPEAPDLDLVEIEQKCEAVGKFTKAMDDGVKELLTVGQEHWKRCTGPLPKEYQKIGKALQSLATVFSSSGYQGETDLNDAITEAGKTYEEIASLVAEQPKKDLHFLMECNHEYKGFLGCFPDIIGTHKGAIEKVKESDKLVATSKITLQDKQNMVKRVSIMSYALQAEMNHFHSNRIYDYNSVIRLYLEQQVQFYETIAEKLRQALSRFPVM
UniProt Q8N5G0: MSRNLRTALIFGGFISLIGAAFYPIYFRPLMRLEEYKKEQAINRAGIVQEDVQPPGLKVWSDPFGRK
UniProt Q02446, whole entry, looked up: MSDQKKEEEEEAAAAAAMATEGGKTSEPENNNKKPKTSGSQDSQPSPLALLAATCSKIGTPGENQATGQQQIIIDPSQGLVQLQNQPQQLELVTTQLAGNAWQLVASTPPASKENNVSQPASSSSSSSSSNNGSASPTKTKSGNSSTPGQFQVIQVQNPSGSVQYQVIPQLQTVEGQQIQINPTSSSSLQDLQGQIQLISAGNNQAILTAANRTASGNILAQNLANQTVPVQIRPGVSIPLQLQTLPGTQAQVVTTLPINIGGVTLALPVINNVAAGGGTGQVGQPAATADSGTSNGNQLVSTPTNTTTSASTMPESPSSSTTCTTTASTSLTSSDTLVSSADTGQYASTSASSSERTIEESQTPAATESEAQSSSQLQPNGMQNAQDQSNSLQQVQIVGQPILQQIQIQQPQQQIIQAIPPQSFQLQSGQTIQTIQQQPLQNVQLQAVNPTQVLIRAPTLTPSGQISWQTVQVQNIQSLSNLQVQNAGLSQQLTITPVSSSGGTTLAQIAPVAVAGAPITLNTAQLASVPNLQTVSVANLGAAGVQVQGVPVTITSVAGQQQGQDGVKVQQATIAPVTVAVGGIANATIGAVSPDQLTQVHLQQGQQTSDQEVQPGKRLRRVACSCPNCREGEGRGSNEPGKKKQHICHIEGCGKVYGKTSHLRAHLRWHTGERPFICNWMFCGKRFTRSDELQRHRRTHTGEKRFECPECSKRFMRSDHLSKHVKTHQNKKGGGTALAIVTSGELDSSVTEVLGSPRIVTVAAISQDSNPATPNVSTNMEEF
UniProt Q9Y5X2: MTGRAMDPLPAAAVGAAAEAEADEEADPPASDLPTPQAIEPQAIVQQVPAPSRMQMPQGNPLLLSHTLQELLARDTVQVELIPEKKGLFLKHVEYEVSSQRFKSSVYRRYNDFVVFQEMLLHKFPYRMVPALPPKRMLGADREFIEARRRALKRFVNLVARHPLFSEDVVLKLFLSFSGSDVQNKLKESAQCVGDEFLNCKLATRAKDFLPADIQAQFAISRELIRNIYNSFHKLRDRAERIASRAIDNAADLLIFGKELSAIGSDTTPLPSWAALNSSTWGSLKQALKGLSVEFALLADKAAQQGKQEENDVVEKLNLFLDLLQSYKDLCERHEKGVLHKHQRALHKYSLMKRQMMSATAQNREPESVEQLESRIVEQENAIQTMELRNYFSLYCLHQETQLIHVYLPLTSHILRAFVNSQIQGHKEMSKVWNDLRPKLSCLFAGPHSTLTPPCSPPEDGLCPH
UniProt P35711: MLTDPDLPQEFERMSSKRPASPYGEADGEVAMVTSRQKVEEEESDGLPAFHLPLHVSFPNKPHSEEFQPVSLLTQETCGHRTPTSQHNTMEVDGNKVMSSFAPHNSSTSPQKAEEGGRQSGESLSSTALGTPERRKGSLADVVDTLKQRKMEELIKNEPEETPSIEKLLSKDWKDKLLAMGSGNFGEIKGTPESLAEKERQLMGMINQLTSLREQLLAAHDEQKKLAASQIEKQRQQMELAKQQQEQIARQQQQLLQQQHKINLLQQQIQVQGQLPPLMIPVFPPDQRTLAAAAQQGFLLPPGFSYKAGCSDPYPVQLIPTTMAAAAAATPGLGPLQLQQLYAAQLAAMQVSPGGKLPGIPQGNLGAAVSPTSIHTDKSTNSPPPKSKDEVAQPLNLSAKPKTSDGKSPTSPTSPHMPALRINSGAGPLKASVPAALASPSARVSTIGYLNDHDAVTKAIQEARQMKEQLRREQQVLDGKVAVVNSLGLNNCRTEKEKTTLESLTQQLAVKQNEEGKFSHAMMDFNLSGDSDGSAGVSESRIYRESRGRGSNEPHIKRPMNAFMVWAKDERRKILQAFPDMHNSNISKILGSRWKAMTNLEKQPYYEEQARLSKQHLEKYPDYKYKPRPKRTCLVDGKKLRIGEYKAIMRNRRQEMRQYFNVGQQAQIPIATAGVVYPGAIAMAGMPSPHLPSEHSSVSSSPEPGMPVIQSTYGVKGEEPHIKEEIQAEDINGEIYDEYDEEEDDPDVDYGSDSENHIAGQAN

Compound in the experiment: NCC(=O)Nc1ccc(-n2nc(C(F)(F)F)cc2-c2ccc3c(ccc4ccccc43)c2)cc1
The experiment can be described thus: log2 fold change, soluble protein after heating vs DMSO (PISA); higher = thermal stabilisation; K562 lysate, 10 uM; active = over 0.2 and 3.5 SD of the protein, either way, in both replicates (recomputed). The method in brief:
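Log-two fold change in thermal stability relative to solvent controls is reported from duplicates. For each sample, crude K562 extract from dounce-homogenised pellets in PBS pH 7.4 with 1 mM MgCl2, at 1 mg/mL protein, was treated with 10 μM compound for 30 min. Aliquots heated for 3 min across 48°C-58°C were pooled, brought to 0.5% NP-40 at 4°C and cleared at 21,000xg for 90 min. The supernatant was quantified by TMTpro 16plex LC-MS/MS with channel sums equalised.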
For SOX7 isoform 2 (UniProt Q9BT81), the log2 fold change is inactive: -0.009.
SMARCD2 (UniProt Q92925): the log2 fold change was inactive: 0.008.
To SNRNP200 (UniProt O75643) belongs inactive: 0.003; to SPARC (UniProt P09486), inactive: -0.003; to SNTA1 (UniProt Q13424), inactive: -0.043.
On to SNRPB isoform 3 (UniProt P14678), for which the log2 fold change is inactive: -0.029.
As to SNX6, A0A0A0MRI2, the log2 fold change is inactive: -0.005.
As to SNUPN (UniProt O95149), the log2 fold change is inactive: -0.076.
In the case of SPAG5 (UniProt Q96R06), the log2 fold change was inactive: 0.038.
Consider SMIM8 (UniProt Q96KF7), for which the log2 fold change was inactive: -0.007.
SNRNP48 (UniProt Q6IEG0): the log2 fold change was inactive: -0.13.
To SMARCD1 (UniProt Q96GM5) belongs inactive: 0.02.
As for SNX16 (UniProt P57768), the figure is inactive: 0.085; as for SNX9 (UniProt Q9Y5X1), inactive: -0.01.
On to SMIM12 (UniProt Q96EX1), for which the log2 fold change is inactive: -0.044.
In the case of SMIM20 isoform 2 (UniProt Q8N5G0), the log2 fold change is inactive: 0.001.
SP4 (UniProt Q02446): the log2 fold change was inactive: 0.059.
As to SNX8 (UniProt Q9Y5X2), the log2 fold change is inactive: 0.005.
Consider SMARCC1 (UniProt Q92922), for which the log2 fold change is inactive: 0.012.
SOS1 (UniProt Q07889): the log2 fold change was inactive: 0.044.
Turning to SOX5 (UniProt P35711), the log2 fold change was inactive: -0.036.
In the case of SNRPG (UniProt P62308), the log2 fold change is inactive: 0.007.
For the target SNX2 isoform 2 (UniProt O60749), the log2 fold change was inactive: 0.311.

These data come from the supplement of paper PMC10849652.
